Data on 21 molecules can be found in the supplement of paper PMC11546906.

Where a name gives a salt, the structure may show the parent alone. The list shows a part of the results. Repeats in this data set agree poorly, so a single value says little.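 FDA-approved drugs were each paired with colistin at one-eighth its MIC and screened against a multidrug-resistant, mcr-1-positive clinical E. coli isolate, with OD600 read after 24 h. Drug-free bacteria served as growth control, plain broth as blank. Combinations were active if OD600 dropped below 0.2.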

The subject of the assay is Escherichia coli 42 (mcr-1-positive clinical isolate). The experiment in a line: OD600 after 24 h growth with compound plus colistin (absorbance units (OD600)); higher = more bacterial growth (less inhibition). As to conditions: first compound 25 µM; colistin concentration 0.5 ug/mL; incubation time 24 h; 37 °C.
As to `CN(C)[C@@H]1C(=O)C(C(N)=O)=C(O)[C@@]2(O)C(=O)C3=C(O)c4c(O)ccc(Cl)c4[C@@](C)(O)[C@H]3C[C@@H]12` [Chlortetracycline hydrochloride] + CCC(C)CCCC(=O)N[C@@H](CCN)C(=O)N[C@H](C(=O)N[C@@H](CCN)C(=O)N[C@H]1CCNC(=O)[C@H]([C@@H](C)O)NC(=O)[C@H](CCN)NC(=O)[C@H](CCN)NC(=O)[C@H](CC(C)C)NC(=O)[C@@H](CC(C)C)NC(=O)[C@H](CCN)NC1=O)[C@@H](C)O [colistin], the OD600 was inactive: 0.852.

In the case of `COc1cc2c(cc1OC)C1CC(=O)C(CC(C)C)CN1CC2` (stereo unspecified) [Tetrabenazine] + CCC(C)CCCC(=O)N[C@@H](CCN)C(=O)N[C@H](C(=O)N[C@@H](CCN)C(=O)N[C@H]1CCNC(=O)[C@H]([C@@H](C)O)NC(=O)[C@H](CCN)NC(=O)[C@H](CCN)NC(=O)[C@H](CC(C)C)NC(=O)[C@@H](CC(C)C)NC(=O)[C@H](CCN)NC1=O)[C@@H](C)O [colistin], the OD600 was inactive: 1.15.

`CCN(C)C(=O)Oc1cccc([C@H](C)N(C)C)c1` [Rivastigmine tartrate] + CCC(C)CCCC(=O)N[C@@H](CCN)C(=O)N[C@H](C(=O)N[C@@H](CCN)C(=O)N[C@H]1CCNC(=O)[C@H]([C@@H](C)O)NC(=O)[C@H](CCN)NC(=O)[C@H](CCN)NC(=O)[C@H](CC(C)C)NC(=O)[C@@H](CC(C)C)NC(=O)[C@H](CCN)NC1=O)[C@@H](C)O [colistin]: the OD600 was inactive: 0.768.

As to `CCCN1C[C@H](CSC)C[C@@H]2c3cccc4[nH]cc(c34)C[C@H]21` [Pergolide mesylate] + CCC(C)CCCC(=O)N[C@@H](CCN)C(=O)N[C@H](C(=O)N[C@@H](CCN)C(=O)N[C@H]1CCNC(=O)[C@H]([C@@H](C)O)NC(=O)[C@H](CCN)NC(=O)[C@H](CCN)NC(=O)[C@H](CC(C)C)NC(=O)[C@@H](CC(C)C)NC(=O)[C@H](CCN)NC1=O)[C@@H](C)O [colistin], the OD600 is inactive: 1.06.

Regarding `C=C1C[C@@H]2[C@H](CC[C@]3(C)C(=O)CC[C@@H]23)[C@@]2(C)C=CC(=O)C=C12` [Exemestane] + CCC(C)CCCC(=O)N[C@@H](CCN)C(=O)N[C@H](C(=O)N[C@@H](CCN)C(=O)N[C@H]1CCNC(=O)[C@H]([C@@H](C)O)NC(=O)[C@H](CCN)NC(=O)[C@H](CCN)NC(=O)[C@H](CC(C)C)NC(=O)[C@@H](CC(C)C)NC(=O)[C@H](CCN)NC1=O)[C@@H](C)O [colistin], the OD600 is inactive: 0.811.

On to `Oc1cc(Cl)ccc1Oc1ccc(Cl)cc1Cl` [Triclosan] + CCC(C)CCCC(=O)N[C@@H](CCN)C(=O)N[C@H](C(=O)N[C@@H](CCN)C(=O)N[C@H]1CCNC(=O)[C@H]([C@@H](C)O)NC(=O)[C@H](CCN)NC(=O)[C@H](CCN)NC(=O)[C@H](CC(C)C)NC(=O)[C@@H](CC(C)C)NC(=O)[C@H](CCN)NC1=O)[C@@H](C)O [colistin], for which the OD600 was active: 0.037.

For the molecule `COc1cc2c(c(OC)c1OC)-c1ccc(OC)c(=O)cc1[C@@H](NC(C)=O)CC2` [Colchicine] + CCC(C)CCCC(=O)N[C@@H](CCN)C(=O)N[C@H](C(=O)N[C@@H](CCN)C(=O)N[C@H]1CCNC(=O)[C@H]([C@@H](C)O)NC(=O)[C@H](CCN)NC(=O)[C@H](CCN)NC(=O)[C@H](CC(C)C)NC(=O)[C@@H](CC(C)C)NC(=O)[C@H](CCN)NC1=O)[C@@H](C)O [colistin], the OD600 was inactive: 1.08.

In the case of `CN1[C@@H]2C[C@@H](OC(=O)[C@H](CO)c3ccccc3)C[C@H]1[C@@H]1O[C@@H]12` [Scopolamine hydrobromide] + CCC(C)CCCC(=O)N[C@@H](CCN)C(=O)N[C@H](C(=O)N[C@@H](CCN)C(=O)N[C@H]1CCNC(=O)[C@H]([C@@H](C)O)NC(=O)[C@H](CCN)NC(=O)[C@H](CCN)NC(=O)[C@H](CC(C)C)NC(=O)[C@@H](CC(C)C)NC(=O)[C@H](CCN)NC1=O)[C@@H](C)O [colistin], the OD600 is inactive: 0.901.

With `C[N+]12CCC(CC1)C(OC(=O)C(O)(c1ccccc1)c1ccccc1)C2` (stereo unspecified) [Clidinium bromide] + CCC(C)CCCC(=O)N[C@@H](CCN)C(=O)N[C@H](C(=O)N[C@@H](CCN)C(=O)N[C@H]1CCNC(=O)[C@H]([C@@H](C)O)NC(=O)[C@H](CCN)NC(=O)[C@H](CCN)NC(=O)[C@H](CC(C)C)NC(=O)[C@@H](CC(C)C)NC(=O)[C@H](CCN)NC1=O)[C@@H](C)O [colistin], the OD600 is inactive: 1.19.

Turning to `CCN(C)C(=O)Oc1cccc([C@H](C)N(C)C)c1` [Rivastigmine] + CCC(C)CCCC(=O)N[C@@H](CCN)C(=O)N[C@H](C(=O)N[C@@H](CCN)C(=O)N[C@H]1CCNC(=O)[C@H]([C@@H](C)O)NC(=O)[C@H](CCN)NC(=O)[C@H](CCN)NC(=O)[C@H](CC(C)C)NC(=O)[C@@H](CC(C)C)NC(=O)[C@H](CCN)NC1=O)[C@@H](C)O [colistin], the OD600 was inactive: 0.9.

With `CC[C@@H](C(N)=O)N1CCCC1=O` [Levetiracetam] + CCC(C)CCCC(=O)N[C@@H](CCN)C(=O)N[C@H](C(=O)N[C@@H](CCN)C(=O)N[C@H]1CCNC(=O)[C@H]([C@@H](C)O)NC(=O)[C@H](CCN)NC(=O)[C@H](CCN)NC(=O)[C@H](CC(C)C)NC(=O)[C@@H](CC(C)C)NC(=O)[C@H](CCN)NC1=O)[C@@H](C)O [colistin], the OD600 is inactive: 1.12.

Consider `C=CN1CCCC1=O.II` [Povidone iodine] + CCC(C)CCCC(=O)N[C@@H](CCN)C(=O)N[C@H](C(=O)N[C@@H](CCN)C(=O)N[C@H]1CCNC(=O)[C@H]([C@@H](C)O)NC(=O)[C@H](CCN)NC(=O)[C@H](CCN)NC(=O)[C@H](CC(C)C)NC(=O)[C@@H](CC(C)C)NC(=O)[C@H](CCN)NC1=O)[C@@H](C)O [colistin], for which the OD600 was inactive: 0.999.

With `N[C@@H]1C[C@H]1c1ccccc1` [Tranylcypromine (2-PCPA) hydrochloride] + CCC(C)CCCC(=O)N[C@@H](CCN)C(=O)N[C@H](C(=O)N[C@@H](CCN)C(=O)N[C@H]1CCNC(=O)[C@H]([C@@H](C)O)NC(=O)[C@H](CCN)NC(=O)[C@H](CCN)NC(=O)[C@H](CC(C)C)NC(=O)[C@@H](CC(C)C)NC(=O)[C@H](CCN)NC1=O)[C@@H](C)O [colistin], the OD600 was inactive: 0.936.

In the case of `C[C@]12CC[C@H]3[C@@H](CC[C@@]45O[C@@H]4C(O)=C(C#N)C[C@]35C)[C@@H]1CC[C@@H]2O` [Trilostane] + CCC(C)CCCC(=O)N[C@@H](CCN)C(=O)N[C@H](C(=O)N[C@@H](CCN)C(=O)N[C@H]1CCNC(=O)[C@H]([C@@H](C)O)NC(=O)[C@H](CCN)NC(=O)[C@H](CCN)NC(=O)[C@H](CC(C)C)NC(=O)[C@@H](CC(C)C)NC(=O)[C@H](CCN)NC1=O)[C@@H](C)O [colistin], the OD600 is inactive: 1.02.

Turning to `CC(C)N(CCC(C(N)=O)(c1ccccc1)c1ccccn1)C(C)C` (stereo unspecified) [Disopyramide] + CCC(C)CCCC(=O)N[C@@H](CCN)C(=O)N[C@H](C(=O)N[C@@H](CCN)C(=O)N[C@H]1CCNC(=O)[C@H]([C@@H](C)O)NC(=O)[C@H](CCN)NC(=O)[C@H](CCN)NC(=O)[C@H](CC(C)C)NC(=O)[C@@H](CC(C)C)NC(=O)[C@H](CCN)NC1=O)[C@@H](C)O [colistin], the OD600 was inactive: 1.12.

For `CN(C)[C@@H]1C(=O)C(C(N)=O)=C(O)[C@@]2(O)C(=O)C3=C(O)c4c(O)cccc4[C@@](C)(O)[C@H]3C[C@@H]12` [Tetracycline] + CCC(C)CCCC(=O)N[C@@H](CCN)C(=O)N[C@H](C(=O)N[C@@H](CCN)C(=O)N[C@H]1CCNC(=O)[C@H]([C@@H](C)O)NC(=O)[C@H](CCN)NC(=O)[C@H](CCN)NC(=O)[C@H](CC(C)C)NC(=O)[C@@H](CC(C)C)NC(=O)[C@H](CCN)NC1=O)[C@@H](C)O [colistin], the OD600 was inactive: 0.928.

With `CC(=O)O[C@H]1CC[C@@]2(C)C(=CC[C@@H]3[C@@H]2CC[C@]2(C)C(=O)CC[C@@H]32)C1` [Dehydroisoandrosterone 3-acetate] + CCC(C)CCCC(=O)N[C@@H](CCN)C(=O)N[C@H](C(=O)N[C@@H](CCN)C(=O)N[C@H]1CCNC(=O)[C@H]([C@@H](C)O)NC(=O)[C@H](CCN)NC(=O)[C@H](CCN)NC(=O)[C@H](CC(C)C)NC(=O)[C@@H](CC(C)C)NC(=O)[C@H](CCN)NC1=O)[C@@H](C)O [colistin], the OD600 was inactive: 1.01.

Take `CN(C)C(=O)Oc1cccc([N+](C)(C)C)c1` [Neostigmine methyl sulfate] + CCC(C)CCCC(=O)N[C@@H](CCN)C(=O)N[C@H](C(=O)N[C@@H](CCN)C(=O)N[C@H]1CCNC(=O)[C@H]([C@@H](C)O)NC(=O)[C@H](CCN)NC(=O)[C@H](CCN)NC(=O)[C@H](CC(C)C)NC(=O)[C@@H](CC(C)C)NC(=O)[C@H](CCN)NC1=O)[C@@H](C)O [colistin]: the OD600 was inactive: 1.16.

Turning to `N=C(N)NN` [Aminoguanidine hydrochloride] + CCC(C)CCCC(=O)N[C@@H](CCN)C(=O)N[C@H](C(=O)N[C@@H](CCN)C(=O)N[C@H]1CCNC(=O)[C@H]([C@@H](C)O)NC(=O)[C@H](CCN)NC(=O)[C@H](CCN)NC(=O)[C@H](CC(C)C)NC(=O)[C@@H](CC(C)C)NC(=O)[C@H](CCN)NC1=O)[C@@H](C)O [colistin], the OD600 is inactive: 0.667.

Take `O=C(O[C@H]1C[N+]2(CCCOc3ccccc3)CCC1CC2)C(O)(c1cccs1)c1cccs1` [Aclidinium bromide] + CCC(C)CCCC(=O)N[C@@H](CCN)C(=O)N[C@H](C(=O)N[C@@H](CCN)C(=O)N[C@H]1CCNC(=O)[C@H]([C@@H](C)O)NC(=O)[C@H](CCN)NC(=O)[C@H](CCN)NC(=O)[C@H](CC(C)C)NC(=O)[C@@H](CC(C)C)NC(=O)[C@H](CCN)NC1=O)[C@@H](C)O [colistin]: the OD600 was inactive: 0.982.

`O=P1(N(CCCl)CCCl)NCCCO1` (stereo unspecified) [Cyclophosphamide hydrate] + CCC(C)CCCC(=O)N[C@@H](CCN)C(=O)N[C@H](C(=O)N[C@@H](CCN)C(=O)N[C@H]1CCNC(=O)[C@H]([C@@H](C)O)NC(=O)[C@H](CCN)NC(=O)[C@H](CCN)NC(=O)[C@H](CC(C)C)NC(=O)[C@@H](CC(C)C)NC(=O)[C@H](CCN)NC1=O)[C@@H](C)O [colistin]: the OD600 was inactive: 0.857.
